No constants are given. Whether binding was seen depends on the method and setting. Binding seen in cells or lysates may run through a third protein.
Biological target: VSV-G-tagged AlgGPa (Pseudomonas aeruginosa PAO1) (UniProt Q51371)
Assay: co-IP

Amino acid sequences for entries named in this document (tags omitted). Residues count along the entry.
UniProt Q51371, residues 36-543: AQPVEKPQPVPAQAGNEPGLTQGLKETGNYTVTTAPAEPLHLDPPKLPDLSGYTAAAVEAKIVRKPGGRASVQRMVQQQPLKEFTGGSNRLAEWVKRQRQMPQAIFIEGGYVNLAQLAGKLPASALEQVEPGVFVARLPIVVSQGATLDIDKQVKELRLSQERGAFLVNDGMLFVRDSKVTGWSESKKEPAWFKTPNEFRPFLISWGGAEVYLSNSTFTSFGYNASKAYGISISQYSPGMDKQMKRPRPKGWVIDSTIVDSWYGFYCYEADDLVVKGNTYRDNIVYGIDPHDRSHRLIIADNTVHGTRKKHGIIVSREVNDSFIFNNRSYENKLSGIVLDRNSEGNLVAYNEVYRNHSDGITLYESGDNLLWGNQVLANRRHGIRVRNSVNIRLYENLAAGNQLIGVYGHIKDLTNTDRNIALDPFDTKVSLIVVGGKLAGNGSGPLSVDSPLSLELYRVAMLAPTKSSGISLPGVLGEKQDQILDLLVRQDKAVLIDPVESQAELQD

B1: AlgKPa (protein, UniProt P96956 28-475)
chain: CAGLPDQRLAQEALERGDLATAQSNYQALAAMGYADAQVGLADMQVASGDSAQQAKAEKLYREAAQTSPRARARLGKWLAAKPGASDAEHREAERLLSQAFEQGEDSALVPLIVLYLQYPQSWPEIDPQQRIDQWRARGLPQADLAQIILYRTQGTYAQHLGEIEQVCQRWLRRMDVCWYELATVYQMQGNAEKQKVLLEQLRAAYKAGRVPGERVDSVAGVLADGELGQPDPQTAQALLEEIAPSYPAAWVSLAKLLYDYPDQGDLEKMLGYLKNAQDAAQPRAELLLGRLYYDGKWAPQDPRKAERHLLKAAASEPQANYYLGQIYRRGFLGKVYPQKAVDHLILAARAGQASADMALAQLWSQGRGIQPNRVNAYVFGQLAVQQQVPQASDLLGQIEAQLPPAERSQAQQLLKREQQSRGNNWQATVSLLQSQDSPINEEEPESL
  binding: no binding
